The supplement of paper PMC10849652
Some of the results follow. Residues, ends and D or L forms follow the SMILES beside them. *: point of attachment. Cbz = O=C(OCc1ccccc1)*

Chains of the proteins cited; added tags and fusions are not shown. Lines headed by an entry give the natural chain unless they say otherwise; changes in a name come on top.
UniProt P0CAP2, whole entry, looked up: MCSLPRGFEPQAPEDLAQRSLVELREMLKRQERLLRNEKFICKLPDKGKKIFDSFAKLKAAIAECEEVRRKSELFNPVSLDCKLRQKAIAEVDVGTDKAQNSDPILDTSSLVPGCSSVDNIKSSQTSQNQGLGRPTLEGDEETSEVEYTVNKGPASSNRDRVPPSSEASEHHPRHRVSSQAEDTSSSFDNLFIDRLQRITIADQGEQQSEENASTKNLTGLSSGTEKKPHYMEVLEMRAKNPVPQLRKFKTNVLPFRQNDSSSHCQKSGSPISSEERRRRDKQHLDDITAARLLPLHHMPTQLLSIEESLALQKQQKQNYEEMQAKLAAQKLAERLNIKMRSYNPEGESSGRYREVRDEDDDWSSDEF
UniProt P28340: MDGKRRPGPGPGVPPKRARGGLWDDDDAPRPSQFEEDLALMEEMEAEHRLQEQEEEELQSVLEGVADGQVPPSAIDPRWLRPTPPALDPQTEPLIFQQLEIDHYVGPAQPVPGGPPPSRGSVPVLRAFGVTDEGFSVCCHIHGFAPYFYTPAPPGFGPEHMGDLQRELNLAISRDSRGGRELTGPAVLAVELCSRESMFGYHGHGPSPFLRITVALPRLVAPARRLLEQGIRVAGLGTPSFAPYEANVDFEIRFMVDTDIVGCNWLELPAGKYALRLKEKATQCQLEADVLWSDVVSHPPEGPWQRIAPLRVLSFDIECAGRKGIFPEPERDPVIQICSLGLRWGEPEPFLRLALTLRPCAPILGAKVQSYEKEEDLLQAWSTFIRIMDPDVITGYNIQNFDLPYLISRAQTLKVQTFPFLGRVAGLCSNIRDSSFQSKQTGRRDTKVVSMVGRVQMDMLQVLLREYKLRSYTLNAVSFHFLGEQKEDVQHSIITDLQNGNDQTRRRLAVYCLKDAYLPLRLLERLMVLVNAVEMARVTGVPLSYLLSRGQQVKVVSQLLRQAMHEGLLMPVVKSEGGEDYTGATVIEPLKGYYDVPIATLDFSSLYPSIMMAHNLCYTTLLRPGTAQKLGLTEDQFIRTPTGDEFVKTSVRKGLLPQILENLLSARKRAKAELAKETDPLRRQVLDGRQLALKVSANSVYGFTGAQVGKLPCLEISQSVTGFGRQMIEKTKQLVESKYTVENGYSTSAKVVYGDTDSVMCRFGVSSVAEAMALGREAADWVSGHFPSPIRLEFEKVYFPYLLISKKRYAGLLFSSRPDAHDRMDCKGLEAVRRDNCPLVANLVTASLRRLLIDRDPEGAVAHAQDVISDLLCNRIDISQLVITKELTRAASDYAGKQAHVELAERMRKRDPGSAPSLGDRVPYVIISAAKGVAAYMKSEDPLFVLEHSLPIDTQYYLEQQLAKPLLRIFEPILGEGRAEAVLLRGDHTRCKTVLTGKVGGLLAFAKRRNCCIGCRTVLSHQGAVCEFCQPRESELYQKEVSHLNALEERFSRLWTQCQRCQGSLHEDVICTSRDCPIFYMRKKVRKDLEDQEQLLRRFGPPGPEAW
UniProt P05423: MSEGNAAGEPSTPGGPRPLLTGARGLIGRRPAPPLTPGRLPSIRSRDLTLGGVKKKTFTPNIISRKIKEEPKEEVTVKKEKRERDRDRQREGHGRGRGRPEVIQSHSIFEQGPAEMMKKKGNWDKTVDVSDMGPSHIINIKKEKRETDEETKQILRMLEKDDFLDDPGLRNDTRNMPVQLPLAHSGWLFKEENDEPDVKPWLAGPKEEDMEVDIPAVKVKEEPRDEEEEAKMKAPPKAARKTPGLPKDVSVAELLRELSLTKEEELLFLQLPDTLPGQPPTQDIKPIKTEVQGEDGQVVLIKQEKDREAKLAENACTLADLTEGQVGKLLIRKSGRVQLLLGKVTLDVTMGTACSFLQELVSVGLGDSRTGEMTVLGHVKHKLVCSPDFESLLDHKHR
UniProt Q8IWE5: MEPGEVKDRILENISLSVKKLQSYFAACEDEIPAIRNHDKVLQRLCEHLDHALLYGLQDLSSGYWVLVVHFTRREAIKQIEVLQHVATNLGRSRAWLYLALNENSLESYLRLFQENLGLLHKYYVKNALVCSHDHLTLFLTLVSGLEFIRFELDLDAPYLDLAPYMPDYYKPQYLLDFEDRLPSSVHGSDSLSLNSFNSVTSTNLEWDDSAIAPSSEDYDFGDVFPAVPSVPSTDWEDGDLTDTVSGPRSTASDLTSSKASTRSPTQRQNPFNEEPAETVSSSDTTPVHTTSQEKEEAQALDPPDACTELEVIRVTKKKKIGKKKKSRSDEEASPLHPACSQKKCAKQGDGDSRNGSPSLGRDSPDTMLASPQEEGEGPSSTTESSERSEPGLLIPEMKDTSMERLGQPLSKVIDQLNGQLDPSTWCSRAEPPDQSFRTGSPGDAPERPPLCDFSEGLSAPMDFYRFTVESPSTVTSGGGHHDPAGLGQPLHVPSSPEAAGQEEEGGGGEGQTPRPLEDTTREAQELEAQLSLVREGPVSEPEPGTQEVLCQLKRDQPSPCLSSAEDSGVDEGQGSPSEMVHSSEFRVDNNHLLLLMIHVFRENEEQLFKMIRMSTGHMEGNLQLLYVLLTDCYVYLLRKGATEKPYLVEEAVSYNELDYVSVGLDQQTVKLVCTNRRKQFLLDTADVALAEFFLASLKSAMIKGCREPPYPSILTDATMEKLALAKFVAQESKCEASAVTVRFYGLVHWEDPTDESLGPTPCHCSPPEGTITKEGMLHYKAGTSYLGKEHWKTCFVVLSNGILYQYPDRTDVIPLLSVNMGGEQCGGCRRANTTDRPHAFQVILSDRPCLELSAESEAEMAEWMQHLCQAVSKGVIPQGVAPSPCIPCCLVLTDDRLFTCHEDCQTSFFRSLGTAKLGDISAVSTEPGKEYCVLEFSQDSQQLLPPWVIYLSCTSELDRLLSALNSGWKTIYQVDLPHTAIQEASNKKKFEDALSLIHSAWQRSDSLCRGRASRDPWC
UniProt Q99541: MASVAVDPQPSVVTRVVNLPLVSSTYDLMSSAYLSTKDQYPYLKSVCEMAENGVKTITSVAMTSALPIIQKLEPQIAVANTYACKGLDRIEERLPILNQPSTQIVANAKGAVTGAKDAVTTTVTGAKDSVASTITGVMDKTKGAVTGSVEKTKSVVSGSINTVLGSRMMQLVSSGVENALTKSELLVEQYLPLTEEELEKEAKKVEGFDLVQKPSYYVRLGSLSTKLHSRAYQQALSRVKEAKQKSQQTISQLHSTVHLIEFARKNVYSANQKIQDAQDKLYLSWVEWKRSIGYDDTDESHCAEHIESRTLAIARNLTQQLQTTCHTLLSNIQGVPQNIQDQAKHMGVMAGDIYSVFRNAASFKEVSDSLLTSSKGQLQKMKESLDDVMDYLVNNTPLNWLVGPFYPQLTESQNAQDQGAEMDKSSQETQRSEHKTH
UniProt Q9Y244: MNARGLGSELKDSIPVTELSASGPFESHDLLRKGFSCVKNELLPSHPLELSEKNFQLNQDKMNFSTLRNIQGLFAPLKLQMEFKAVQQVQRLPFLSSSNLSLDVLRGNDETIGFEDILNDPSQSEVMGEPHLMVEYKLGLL
UniProt Q15063: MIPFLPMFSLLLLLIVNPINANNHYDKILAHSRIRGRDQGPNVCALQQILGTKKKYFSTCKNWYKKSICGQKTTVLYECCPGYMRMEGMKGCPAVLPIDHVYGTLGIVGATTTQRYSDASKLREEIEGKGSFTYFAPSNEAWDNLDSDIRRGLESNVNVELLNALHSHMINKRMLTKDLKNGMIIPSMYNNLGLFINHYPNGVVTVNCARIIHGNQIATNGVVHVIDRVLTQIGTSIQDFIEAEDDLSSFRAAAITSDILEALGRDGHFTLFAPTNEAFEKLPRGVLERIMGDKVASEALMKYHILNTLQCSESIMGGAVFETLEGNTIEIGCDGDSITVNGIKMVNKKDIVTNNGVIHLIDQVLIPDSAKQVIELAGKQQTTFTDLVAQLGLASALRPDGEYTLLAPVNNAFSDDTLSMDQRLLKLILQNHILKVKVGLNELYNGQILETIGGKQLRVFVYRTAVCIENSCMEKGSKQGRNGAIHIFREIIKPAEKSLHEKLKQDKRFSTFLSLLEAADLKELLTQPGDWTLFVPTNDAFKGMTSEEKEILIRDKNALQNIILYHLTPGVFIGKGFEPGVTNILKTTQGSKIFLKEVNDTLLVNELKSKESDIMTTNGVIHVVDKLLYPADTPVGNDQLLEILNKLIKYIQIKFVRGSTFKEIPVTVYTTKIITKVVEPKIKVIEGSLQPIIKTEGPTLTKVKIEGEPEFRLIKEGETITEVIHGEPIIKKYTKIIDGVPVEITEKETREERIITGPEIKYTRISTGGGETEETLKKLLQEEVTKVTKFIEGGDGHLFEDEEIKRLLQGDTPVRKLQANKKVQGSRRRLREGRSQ
UniProt Q9Y2Y1: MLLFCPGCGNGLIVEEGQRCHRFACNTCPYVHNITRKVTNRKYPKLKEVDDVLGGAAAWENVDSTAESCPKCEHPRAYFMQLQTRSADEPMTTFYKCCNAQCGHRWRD
UniProt Q14651: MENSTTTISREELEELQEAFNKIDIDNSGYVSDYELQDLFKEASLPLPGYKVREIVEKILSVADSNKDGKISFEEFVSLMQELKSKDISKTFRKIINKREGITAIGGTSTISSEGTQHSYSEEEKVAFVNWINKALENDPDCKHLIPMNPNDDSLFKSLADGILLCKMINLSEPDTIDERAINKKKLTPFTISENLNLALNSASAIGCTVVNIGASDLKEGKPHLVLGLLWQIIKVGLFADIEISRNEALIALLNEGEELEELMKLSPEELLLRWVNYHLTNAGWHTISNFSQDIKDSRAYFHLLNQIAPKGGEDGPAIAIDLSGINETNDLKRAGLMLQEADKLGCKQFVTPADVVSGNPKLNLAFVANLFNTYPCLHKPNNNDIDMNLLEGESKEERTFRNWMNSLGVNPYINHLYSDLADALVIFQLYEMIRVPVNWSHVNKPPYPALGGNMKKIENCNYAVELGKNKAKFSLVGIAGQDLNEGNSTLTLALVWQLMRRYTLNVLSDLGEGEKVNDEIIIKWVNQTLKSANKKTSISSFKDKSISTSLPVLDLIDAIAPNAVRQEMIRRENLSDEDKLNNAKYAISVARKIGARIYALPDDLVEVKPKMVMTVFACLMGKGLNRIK
UniProt Q8NBL1: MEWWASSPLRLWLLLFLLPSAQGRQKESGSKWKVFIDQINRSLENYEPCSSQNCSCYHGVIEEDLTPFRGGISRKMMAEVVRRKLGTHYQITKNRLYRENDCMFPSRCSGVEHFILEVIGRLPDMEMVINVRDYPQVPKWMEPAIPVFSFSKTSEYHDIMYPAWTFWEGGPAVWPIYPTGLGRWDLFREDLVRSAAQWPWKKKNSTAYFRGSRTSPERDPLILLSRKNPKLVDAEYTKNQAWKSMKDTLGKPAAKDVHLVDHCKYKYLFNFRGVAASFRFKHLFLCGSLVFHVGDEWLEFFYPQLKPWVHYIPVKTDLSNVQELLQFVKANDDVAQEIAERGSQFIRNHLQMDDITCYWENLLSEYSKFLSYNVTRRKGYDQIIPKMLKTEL
UniProt P0DPB5: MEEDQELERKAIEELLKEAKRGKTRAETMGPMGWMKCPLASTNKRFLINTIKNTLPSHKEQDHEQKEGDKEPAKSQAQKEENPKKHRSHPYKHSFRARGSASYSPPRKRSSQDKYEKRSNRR
UniProt Q9BX97: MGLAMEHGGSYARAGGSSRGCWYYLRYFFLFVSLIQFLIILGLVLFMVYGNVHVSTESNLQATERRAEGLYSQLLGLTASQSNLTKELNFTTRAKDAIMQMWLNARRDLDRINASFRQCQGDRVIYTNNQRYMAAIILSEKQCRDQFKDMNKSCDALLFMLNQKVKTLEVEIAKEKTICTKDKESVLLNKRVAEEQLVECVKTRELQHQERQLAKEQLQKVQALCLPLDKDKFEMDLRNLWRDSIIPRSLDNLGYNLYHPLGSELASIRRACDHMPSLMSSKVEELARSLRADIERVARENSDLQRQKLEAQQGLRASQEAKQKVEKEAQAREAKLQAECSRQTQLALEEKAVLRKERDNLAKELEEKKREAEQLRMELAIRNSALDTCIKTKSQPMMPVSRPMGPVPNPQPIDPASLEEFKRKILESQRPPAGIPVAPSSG

Assays:
Assay in all cases: log2 fold change, soluble protein after heating vs DMSO (PISA); higher = thermal stabilisation; K562 cells, 10 uM, 30 min; active = over 0.2 and 3.5 SD of the protein, either way, in both replicates (recomputed)
erlotinib = compound: C#Cc1cccc(Nc2ncnc3cc(OCCOC)c(OCCOC)cc23)c1 [erlotinib]
Procedure, shortened: (§1)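 K562 cells at 2×10^6 cells/mL were treated with 10 μM compound for 30 min. Aliquots were heated for 3 min across 48°C-58°C, pooled, and extracted in PBS with 0.5% NP-40 at 4°C; soluble protein was the supernatant after 21,000xg for 90 min. Soluble protein was quantified by TMTpro 16plex LC-MS/MS with channel sums equalised, and reported as log2 fold change in thermal stability against DMSO controls, with values from duplicates.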

[1] = compound: C/C(=N\NC(=O)C1=CC(=CC=C1)S(=O)(=O)N2CCOCC2)/C3=C(C=CC(=C3)Cl)O
Procedure, shortened: as §1

[2] = compound: C1=CC(=C(C=C1Cl)C2=NC3=NC=CN=C3C(=N2)NC4=CC=NC=C4)F
Procedure, shortened: as §1

[3] = compound: C1=CC(=CC=C1C2=NC3=C(N2)C=C(C=C3)C(=O)N)OC4=CC=C(C=C4)Cl
Procedure, shortened: as §1

[4] = compound: C1=CC2=C(C=CC(=C2)/C=C\3/C(=O)NC(=NCC4=CC=CS4)S3)N=C1
Procedure, shortened: as §1

[5] = compound: C1=CC2=NC=CN=C2C=C1/C=C/3\C(=O)NC(=O)S3
Procedure, shortened: as §1

[6] = compound: C1=CC=C(C=C1)C2=NC(=C(N2)C3=CC=NC=C3)C4=CC(=C(C=C4)Cl)O
Procedure, shortened: as §1

[7] = compound: C1=CC=C2C(=C1)C3=NNC4=CC=CC(=C43)C2=O
Procedure, shortened: as §1

[8] = compound: C1CCN(C1)C(=O)NC2=CC=CC(=C2)NC3=NC=C(C(=N3)NCCC4=CN=CN4)Br
Procedure, shortened: as §1

[9] = compound: C1CN(CCC1(CC2=CC=C(C=C2)Cl)N)C3=NC=NC4=C3C=CN4
Procedure, shortened: as §1

IRAK-1-4 Inhibitor I = compound: C1COCCN1CCN2C3=CC=CC=C3N=C2NC(=O)C4=CC(=CC=C4)[N+](=O)[O-] [IRAK-1-4 Inhibitor I]
Procedure, shortened: as §1

ibrutinib = compound: C=CC(=O)N1CCC[C@@H](n2nc(-c3ccc(Oc4ccccc4)cc3)c3c(N)ncnc32)C1 [ibrutinib]
Procedure, shortened: as §1

[10] = compound: CC(=O)c1cnc2ccc(-c3cc(Cl)c(O)c(Cl)c3)nc2c1N[C@H]1CC[C@H](CN(C)C)CC1
Procedure, shortened: as §1

ralimetinib = compound: CC(C)(C)Cn1c(N)nc2ccc(-c3[nH]c(C(C)(C)C)nc3-c3ccc(F)cc3)nc21 [ralimetinib]
Procedure, shortened: as §1

[11] = compound: CC(C)(O)CC(=O)NCCn1ccc2ncnc(Nc3ccc(Oc4cccc(C(F)(F)F)c4)c(Cl)c3)c21
Procedure, shortened: as §1

[12] = compound: CC(C)C1=C2N=C(C=C(N2N=C1)NCC3=CC=CC=C3)NCCCCCCN
Procedure, shortened: as §1

[13] = compound: CC(C)C[C@@H](C=O)NC(=O)[C@H](CC(C)C)NC(=O)[C@H](CC(C)C)NC(=O)OCc1ccccc1
Procedure, shortened: as §1

pinometostat = compound: CC(C)N(C[C@H]1O[C@@H](n2cnc3c(N)ncnc32)[C@H](O)[C@@H]1O)[C@H]1C[C@@H](CCc2nc3cc(C(C)(C)C)ccc3[nH]2)C1 [pinometostat]
Procedure, shortened: as §1

[14] = compound: CC1=C(C2=C(C=C1)C(=O)C3=CC=CC=C3N2CCCN)C
Procedure, shortened: as §1

[15] = compound: CC1=C(C(CC(=O)N1)C2=CC=C(C=C2)C(F)(F)F)C(=O)NC3=C(C=C4C(=C3)C=NN4)F
Procedure, shortened: as §1

Row | Target | log2 fold change (erlotinib) | log2 fold change [1] | log2 fold change [2] | log2 fold change [3] | log2 fold change [4] | log2 fold change [5] | log2 fold change [6] | log2 fold change [7] | log2 fold change [8] | log2 fold change [9] | log2 fold change (IRAK-1-4 Inhibitor I) | log2 fold change (ibrutinib) | log2 fold change [10] | log2 fold change (ralimetinib) | log2 fold change [11] | log2 fold change [12] | log2 fold change [13] | log2 fold change (pinometostat) | log2 fold change [14] | log2 fold change [15]
1 | POLR2A (UniProt P24928) | inactive: -0.018 | inactive: -0.019 | inactive: -0.008 | inactive: 0.024 | inactive: 0.013 | inactive: 0.039 | inactive: 0.019 | inactive: 0.026 | inactive: 0.111 | inactive: -0.042 | inactive: -0.029 | inactive: 0.054 | active: 0.342 | inactive: 0.011 | inactive: -0.065 | inactive: 0.19 | inactive: 0.005 | inactive: -0.004 | inactive: 0.033 | 
2 | POLR2B (UniProt P30876) | inactive: -0.008 | inactive: -0.014 | inactive: -0.025 | inactive: 0.024 | inactive: -0.006 | inactive: 0.047 | inactive: 0.045 | inactive: 0.009 | inactive: 0.068 | inactive: -0.063 | inactive: -0.095 | inactive: -0.002 | active: 0.262 | inactive: 0.066 | inactive: -0.047 | inactive: 0.08 | inactive: 0.03 | inactive: 0.037 | inactive: 0.03 | 
3 | POLR2M (UniProt P0CAP2) | inactive: -0.042 | inactive: -0.033 | inactive: -0.054 | inactive: 0.004 | inactive: 0.05 | inactive: 0.055 | inactive: 0.041 | inactive: -0.009 | inactive: 0.017 | inactive: -0.024 | inactive: -0.022 | inactive: -0.017 | inactive: 0.067 | inactive: 0.016 | inactive: 0.001 | inactive: 0.059 | inactive: 0.058 | inactive: -0.02 | inactive: 0 | 
4 | POLD1 (UniProt P28340) | inactive: 0.063 | inactive: 0.039 | inactive: -0.009 | inactive: -0.016 | inactive: 0.023 | inactive: -0.024 | inactive: 0.05 | inactive: -0.058 | inactive: -0.02 | inactive: -0.022 | inactive: -0.009 | inactive: 0.021 | inactive: -0.081 | inactive: -0.02 | inactive: -0.085 | inactive: -0.12 | inactive: 0.11 | inactive: 0.024 | inactive: -0.011 | 
5 | POLR3D (UniProt P05423) | inactive: 0.068 | active: -0.665 | inactive: -0.087 | inactive: -0.031 | active: -0.733 | inactive: -0.022 | inactive: 0.076 | inactive: -0.004 | inactive: -0.005 | inactive: 0.372 | inactive: -0.017 | inactive: 0.766 | inactive: 0.022 | inactive: 0.043 | inactive: -0.1 | inactive: -0.158 | inactive: -0.002 | inactive: 0.109 | inactive: 0.009 | 
6 | PLEKHM2 (UniProt Q8IWE5) | inactive: 0.228 | inactive: 0.07 | inactive: 0.034 | inactive: -0.03 | inactive: 0.075 | inactive: 0.069 | inactive: 0.082 | inactive: -0.065 | inactive: -0.005 | inactive: -0.066 | inactive: -0.018 | inactive: -0.073 | inactive: -0.085 | inactive: 0.162 | inactive: 0.016 | inactive: -0.034 | inactive: -0.102 | inactive: -0.042 | inactive: 0.016 | 
7 | POLR2G (UniProt P62487) | inactive: -0.041 | inactive: -0.011 | inactive: -0.001 | inactive: 0.025 | inactive: -0.078 | inactive: 0.044 | inactive: 0.063 | inactive: 0.014 | inactive: -0.033 | inactive: 0.071 | inactive: 0.001 | inactive: 0.078 | active: 0.329 | inactive: -0.052 | inactive: -0.011 | active: 0.371 | inactive: 0.012 | inactive: -0.044 | inactive: 0.268 | 
8 | PLIN2 (UniProt Q99541) | inactive: 0.033 | inactive: 0.028 | inactive: 0.043 | inactive: -0.038 | inactive: 0.023 | inactive: 0.101 | inactive: 0 | inactive: -0.089 | inactive: 0.028 | inactive: -0.068 | inactive: 0.058 | inactive: 0.055 | inactive: 0.005 | inactive: -0.065 | inactive: -0.083 | active: -1.11 | inactive: -0.014 | inactive: 0.007 | inactive: -0.022 | 
9 | POMP (UniProt Q9Y244) | inactive: 0.003 | inactive: -0.018 | active: 0.373 | inactive: 0.015 | inactive: -0.073 | inactive: 0.086 | inactive: -0.018 | inactive: 0.003 | inactive: 0.061 | inactive: -0.034 | inactive: 0.029 | inactive: -0.002 | inactive: -0.002 | inactive: -0.022 | inactive: -0.033 | inactive: 0.009 | inactive: -0.002 | inactive: -0.023 | inactive: -0.053 | 
10 | POLA1 (UniProt P09884) | inactive: 0.03 | inactive: 0.038 | inactive: 0.042 | inactive: -0.023 | inactive: -0.032 | inactive: 0 | inactive: -0.013 | inactive: 0.021 | inactive: 0.006 | inactive: -0.022 | inactive: -0.034 | inactive: -0.06 | inactive: -0.02 | inactive: -0.018 | inactive: -0.066 | inactive: -0.151 | inactive: 0.005 | inactive: -0.027 | inactive: -0.066 | 
11 | POSTN (UniProt Q15063) | inactive: -0.014 | inactive: -0.101 | inactive: 0 | inactive: 0.053 | inactive: 0.128 | inactive: -0.023 | inactive: -0.007 | inactive: -0.028 | inactive: -0.071 | inactive: 0.05 | inactive: 0.044 | inactive: 0.101 | inactive: 0.056 | inactive: -0.083 | inactive: 0.148 | inactive: 0.021 | inactive: -0.026 | inactive: -0.131 | inactive: -0.16 | inactive: 0.017
12 | POLR2K (UniProt P53803) | inactive: -0.081 | inactive: 0.021 | inactive: -0.037 | inactive: 0.127 | inactive: -0.017 | inactive: 0.097 | inactive: -0.1 | inactive: -0.105 | inactive: 0.005 | inactive: 0.022 | inactive: -0.041 | inactive: 0.003 | inactive: 0.059 | inactive: -0.093 | inactive: 0.028 | active: 0.429 | inactive: 0.093 | inactive: -0.092 | inactive: 0.027 | 
13 | POLR3K (UniProt Q9Y2Y1) | inactive: -0.082 | inactive: 0.005 | inactive: -0.005 | inactive: 0.007 | inactive: -0.057 | inactive: -0.038 | active: -0.235 | inactive: -0.056 | inactive: -0.006 | inactive: 0.031 | inactive: 0.026 | inactive: 0.044 | inactive: -0.013 | inactive: -0.084 | inactive: -0.07 | inactive: 0.124 | inactive: 0.089 | inactive: 0.043 | inactive: -0.039 | 
14 | PLS1 (UniProt Q14651) | inactive: 0.009 | inactive: 0.105 | inactive: 0.05 | inactive: 0.004 | inactive: 0.084 | inactive: 0.027 | inactive: -0.015 | inactive: 0.003 | inactive: -0.004 | inactive: -0.015 | inactive: 0.028 | inactive: -0.027 | inactive: -0.045 | inactive: -0.019 | inactive: -0.03 | inactive: -0.002 | inactive: 0.009 | inactive: 0.004 | inactive: 0.048 | inactive: 0.001
15 | POGLUT1 (UniProt Q8NBL1) | inactive: 0.006 | inactive: -0.046 | inactive: -0.041 | inactive: -0.004 | inactive: 0.055 | inactive: 0.026 | inactive: 0.167 | inactive: -0.013 | inactive: -0.007 | inactive: -0.041 | inactive: -0.032 | inactive: -0.03 | inactive: -0.047 | inactive: 0.162 | inactive: 0.058 | inactive: 0.055 | inactive: -0.106 | inactive: 0.026 | inactive: 0.016 | 
16 | POLR1D (UniProt P0DPB5) | inactive: -0.084 | inactive: -0.015 | inactive: -0.082 | inactive: 0.064 | inactive: -0.002 | inactive: 0.14 | inactive: -0.085 | inactive: -0.078 | inactive: 0.029 | inactive: -0.037 | inactive: -0.084 | inactive: 0.237 | inactive: -0.137 | inactive: 0.039 | inactive: 0.19 | inactive: 0.041 | inactive: 0.13 | inactive: 0.055 | inactive: -0.013 | 
17 | PLVAP (UniProt Q9BX97) | inactive: -0.096 | inactive: -0.1 | inactive: -0.186 | inactive: 0.103 | inactive: 0.106 | inactive: 0.007 | inactive: -0.015 | inactive: -0.101 | inactive: -0.118 | inactive: 0.071 |  | inactive: 0.224 | inactive: 0.034 | inactive: -0.042 | inactive: 0 | inactive: 0.135 | inactive: -0.069 |  | inactive: -0.046 | inactive: -0.077

Pulled one by one from the list above:
Row | Target | log2 fold change (erlotinib) | log2 fold change [1] | log2 fold change [2] | log2 fold change [3] | log2 fold change [4] | log2 fold change [5] | log2 fold change [6] | log2 fold change [7] | log2 fold change [8] | log2 fold change [9] | log2 fold change (IRAK-1-4 Inhibitor I) | log2 fold change (ibrutinib) | log2 fold change [10] | log2 fold change (ralimetinib) | log2 fold change [11] | log2 fold change [12] | log2 fold change [13] | log2 fold change (pinometostat) | log2 fold change [14] | log2 fold change [15]
16 | POLR1D (UniProt P0DPB5) | inactive: -0.084 | inactive: -0.015 | inactive: -0.082 | inactive: 0.064 | inactive: -0.002 | inactive: 0.14 | inactive: -0.085 | inactive: -0.078 | inactive: 0.029 | inactive: -0.037 | inactive: -0.084 | inactive: 0.237 | inactive: -0.137 | inactive: 0.039 | inactive: 0.19 | inactive: 0.041 | inactive: 0.13 | inactive: 0.055 | inactive: -0.013 | 
6 | PLEKHM2 (UniProt Q8IWE5) | inactive: 0.228 | inactive: 0.07 | inactive: 0.034 | inactive: -0.03 | inactive: 0.075 | inactive: 0.069 | inactive: 0.082 | inactive: -0.065 | inactive: -0.005 | inactive: -0.066 | inactive: -0.018 | inactive: -0.073 | inactive: -0.085 | inactive: 0.162 | inactive: 0.016 | inactive: -0.034 | inactive: -0.102 | inactive: -0.042 | inactive: 0.016 | 
